Experimental data as given in paper PMC7797683.
Results are given in words; binding and its absence hold for the method and conditions named. Binding seen in cells or lysates may run through a third protein. Some entries that bind do so weakly or less than the wild type.

What was measured:
[1] = biological target: T1, ARHGEF2 (human (human gastric cancer cell lines)) (UniProt Q92974); assay: pull-down; pull-down assay of NEK9 and ARHGEF2 (Figure 3D, S1C); bait, tags and conditions not told in the text shown
T1 sequence: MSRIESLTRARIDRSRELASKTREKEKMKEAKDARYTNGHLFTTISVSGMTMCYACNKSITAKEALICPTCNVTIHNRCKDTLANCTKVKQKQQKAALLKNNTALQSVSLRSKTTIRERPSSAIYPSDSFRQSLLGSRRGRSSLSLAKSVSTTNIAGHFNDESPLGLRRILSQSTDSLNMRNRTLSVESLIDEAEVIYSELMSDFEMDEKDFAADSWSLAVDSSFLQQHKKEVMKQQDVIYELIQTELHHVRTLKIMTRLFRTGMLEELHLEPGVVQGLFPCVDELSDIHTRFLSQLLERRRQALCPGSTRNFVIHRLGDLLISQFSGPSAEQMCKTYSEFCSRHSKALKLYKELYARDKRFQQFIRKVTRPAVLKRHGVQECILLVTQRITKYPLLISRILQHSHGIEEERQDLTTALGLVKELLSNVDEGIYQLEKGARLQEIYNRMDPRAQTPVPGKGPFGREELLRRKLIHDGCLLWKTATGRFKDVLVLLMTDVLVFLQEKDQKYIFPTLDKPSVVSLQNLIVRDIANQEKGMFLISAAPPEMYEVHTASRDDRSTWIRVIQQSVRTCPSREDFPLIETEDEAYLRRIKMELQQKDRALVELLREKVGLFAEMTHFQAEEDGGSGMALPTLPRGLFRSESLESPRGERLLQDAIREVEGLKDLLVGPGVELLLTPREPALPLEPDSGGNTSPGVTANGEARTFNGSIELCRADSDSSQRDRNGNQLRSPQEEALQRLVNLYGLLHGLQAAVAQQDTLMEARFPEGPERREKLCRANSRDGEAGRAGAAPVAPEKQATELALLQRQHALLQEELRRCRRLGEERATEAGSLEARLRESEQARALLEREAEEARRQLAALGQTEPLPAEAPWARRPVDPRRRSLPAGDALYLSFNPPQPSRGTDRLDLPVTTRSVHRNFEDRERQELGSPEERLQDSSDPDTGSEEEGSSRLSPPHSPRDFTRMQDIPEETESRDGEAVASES

[2] = biological target: T1, ARHGEF2 (human (human gastric cancer cell lines)); assay: co-IP; immunoprecipitation with anti-ARHGEF2 (ab155785), anti-NEK9 (sc-100401) or control IgG on protein A/G-agarose, then western blot

binding [1]: binds
binding [2]: binds
B1: Never in mitosis gene A (NIMA)-related kinase 9 (NEK9) (enzyme, UniProt Q8TD19 1-979)
chain: MSVLGEYERHCDSINSDFGSESGGCGDSSPGPSASQGPRAGGGAAEQEELHYIPIRVLGRGAFGEATLYRRTEDDSLVVWKEVDLTRLSEKERRDALNEIVILALLQHDNIIAYYNHFMDNTTLLIELEYCNGGNLYDKILRQKDKLFEEEMVVWYLFQIVSAVSCIHKAGILHRDIKTLNIFLTKANLIKLGDYGLAKKLNSEYSMAETLVGTPYYMSPELCQGVKYNFKSDIWAVGCVIFELLTLKRTFDATNPLNLCVKIVQGIRAMEVDSSQYSLELIQMVHSCLDQDPEQRPTADELLDRPLLRKRRREMEEKVTLLNAPTKRPRSSTVTEAPIAVVTSRTSEVYVWGGGKSTPQKLDVIKSGCSARQVCAGNTHFAVVTVEKELYTWVNMQGGTKLHGQLGHGDKASYRQPKHVEKLQGKAIRQVSCGDDFTVCVTDEGQLYAFGSDYYGCMGVDKVAGPEVLEPMQLNFFLSNPVEQVSCGDNHVVVLTRNKEVYSWGCGEYGRLGLDSEEDYYTPQKVDVPKALIIVAVQCGCDGTFLLTQSGKVLACGLNEFNKLGLNQCMSGIINHEAYHEVPYTTSFTLAKQLSFYKIRTIAPGKTHTAAIDERGRLLTFGCNKCGQLGVGNYKKRLGINLLGGPLGGKQVIRVSCGDEFTIAATDDNHIFAWGNGGNGRLAMTPTERPHGSDICTSWPRPIFGSLHHVPDLSCRGWHTILIVEKVLNSKTIRSNSSGLSIGTVFQSSSPGGGGGGGGGEEEDSQQESETPDPSGGFRGTMEADRGMEGLISPTEAMGNSNGASSSCPGWLRKELENAEFIPMPDSPSPLSAAFSESEKDTLPYEELQGLKVASEAPLEHKPQVEASSPRLNPAVTCAGKGTPLTPPACACSSLQVEVERLQGLVLKCLAEQQKLQQENLQIFTQLQKLNKKLEGGQQVGMHSKGTQTAKEEMEMDPKPDLDSDSWCLLGTDSCRPSL
